This is one part of the list.

This assay concerns the target T1, OsSMF1 (Oryza sativa, UniProt Q6ZLB0 1-436).
T1 sequence: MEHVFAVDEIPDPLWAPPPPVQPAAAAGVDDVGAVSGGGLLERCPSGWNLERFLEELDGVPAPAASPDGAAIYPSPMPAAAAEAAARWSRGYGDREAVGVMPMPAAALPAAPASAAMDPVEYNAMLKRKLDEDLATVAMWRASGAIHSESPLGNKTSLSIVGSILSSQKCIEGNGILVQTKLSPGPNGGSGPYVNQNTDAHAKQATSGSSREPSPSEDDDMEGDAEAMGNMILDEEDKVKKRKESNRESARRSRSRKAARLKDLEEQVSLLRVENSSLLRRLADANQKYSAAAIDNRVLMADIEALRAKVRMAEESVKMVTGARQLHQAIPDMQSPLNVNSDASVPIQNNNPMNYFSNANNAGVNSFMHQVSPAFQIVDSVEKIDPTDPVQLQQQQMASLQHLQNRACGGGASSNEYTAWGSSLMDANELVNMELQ
Put plainly: protein-binding microarray (RPBM); PBS, 2% BSA, 51.3 ng/ul salmon testes DNA, 50 uM zinc acetate, 200 nM TF, 25 C, 1 h; high values mean tight binding. The settings on record: protein: recombinant; tags: N-terminal polyhistidine and DsRed monomer fusion (pET32a); chain copies: 2; label: CyDye5-dUTP incorporated in the synthesized complementary strand; 3' TTTTT single-stranded linker to array surface; dsDNA, one strand shown. The method, boiled down:
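Polyhistidine-tagged DsRed fusions of transcription factors, joined at the N-terminus, were expressed in E. coli BL21-CodonPlus and isolated on Ni–NTA. They were incubated at 200 nM for 1 h at 25 °C on a custom Agilent array, double-stranded and BSA-blocked, in PBS with 2% BSA, salmon testes DNA and 50 µM zinc acetate. The binding signal is per-feature fluorescence intensity (arbitrary units) read on an Axon 4000B scanner after washing.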
On to “GTCTCTTACTCTTAACCCCAAGGAGTGGAAGCAAGAAGCGCGGAGTCACCTAGTGCAG”, for which the binding signal was 3170 fluorescence intensity (a.u.).
With “AGACCTGGGTGCACCGCGACGTGGCCAGACGCCCCGCTCCCGGAGTCACCTAGTGCAG”, the binding signal was 4480 fluorescence intensity (a.u.).
Consider “TCGCACGGGCCATGGAGCTACGTGGAGGGCGCGGTGTACCCGGAGTCACCTAGTGCAG”, for which the binding signal was 4020 fluorescence intensity (a.u.).
With “AATGCAATCTGGATTGTCACGCATATGCCACGTAGGATAACGGAGTCACCTAGTGCAG” the figure was 22500 fluorescence intensity (a.u.); with “GAATATATCACATATGGTCATAGATTTGTTGTTTATGGGACGGAGTCACCTAGTGCAG”, 3560 fluorescence intensity (a.u.).
For the sequence “CGAAGACGCCGCGTGGCCATGATCCTAGCATTTGGGATGGCGGAGTCACCTAGTGCAG”, the binding signal is 4580 fluorescence intensity (a.u.).
Regarding “AGCTTGTGTACCCAGGAGATCTACATACTTCGCTACGTCACGGAGTCACCTAGTGCAG”, the binding signal was 4570 fluorescence intensity (a.u.).
Take “TGAGCTCATGCTCGTTGGCCCATGTCACCGGTCAGCCTCACGGAGTCACCTAGTGCAG”: the binding signal is 3690 fluorescence intensity (a.u.).
In the case of “GCCTCACACAGTCACACCTATTCAGAACTTCATGTCAGTACGGAGTCACCTAGTGCAG”, the binding signal is 4420 fluorescence intensity (a.u.).
Regarding “AAAATAGTGTCCAACCCAATGACGTATTATAGAATAATTGCGGAGTCACCTAGTGCAG”, the binding signal was 4490 fluorescence intensity (a.u.).
Consider “ACGCGTGGGTGCCCGCGTCATCTTCTCCGGCTCGCCGTTGCGGAGTCACCTAGTGCAG”, for which the binding signal is 8040 fluorescence intensity (a.u.).
As for “CCAGCTGTGTTGGTCCAGCTGGACGTGGACAGTTGGGCAACGGAGTCACCTAGTGCAG”, the binding signal is 3140 fluorescence intensity (a.u.).
With “CTCGTCTCTCCTCACTCCACTCGACTCCTCACTCATCCTACGGAGTCACCTAGTGCAG” the figure was 3380 fluorescence intensity (a.u.); with “GCGTGTTGCGCACGGCGCACGCCGCCGCAAACGTCGCCGCCGGAGTCACCTAGTGCAG”, 4620 fluorescence intensity (a.u.); with “TGTCTATTTCATTAAACCTCGTCCTTTCTTTCATTCCGGACGGAGTCACCTAGTGCAG”, 38200 fluorescence intensity (a.u.).
With “AAGGTATTGTCCCCTAGGGGATCTCTTGGGCGACGTGGCGCGGAGTCACCTAGTGCAG” the figure was 6960 fluorescence intensity (a.u.); with “GTTGACTTGCTGAGTCAACAAGCGGGTCTCACATGTCAGCCGGAGTCACCTAGTGCAG”, 14600 fluorescence intensity (a.u.); with “TTTCTCTTGCGCGTTGTGCTGCTGCTGCTGACGATACGGGCGGAGTCACCTAGTGCAG”, 4720 fluorescence intensity (a.u.).
For “GAGGCTGACGAGGCTCATGTAGGCCACCTCTAGCACCAGCCGGAGTCACCTAGTGCAG”, the binding signal is 5350 fluorescence intensity (a.u.).
In the case of “TTGTGGGACGTGGGTCGGGGATGGATGGATAGGCAAGGCGCGGAGTCACCTAGTGCAG”, the binding signal was 3190 fluorescence intensity (a.u.).
As to “CTGTTGTGTTGTGTTGTAATATGATTATGTGGGTGCTTATCGGAGTCACCTAGTGCAG”, the binding signal was 3290 fluorescence intensity (a.u.).
With “AAACACGATCCGCGCTGACCGCCGCGCCGCCAACCGGCAACGGAGTCACCTAGTGCAG” the figure was 3300 fluorescence intensity (a.u.); with “AAATATAATAAATTTAATGTTAACATATTTTACACGTAAGCGGAGTCACCTAGTGCAG”, 9740 fluorescence intensity (a.u.).
With “TTCCTTTTGGCAAAATTGGTTCTATAGCTGAGCCGGCCAACGGAGTCACCTAGTGCAG”, the binding signal is 3230 fluorescence intensity (a.u.).
Regarding “AGTAATGGCATCAGCAATGTATGGGTTACAACCAGGCATTCGGAGTCACCTAGTGCAG”, the binding signal was 31200 fluorescence intensity (a.u.).
In the case of “GAATTGGGGAGGGAGATTAATAATGGATCTTCGCTTTCTGCGGAGTCACCTAGTGCAG”, the binding signal is 3410 fluorescence intensity (a.u.).
With “GTCAAACGTTAGACACGAATTTCCACGATTGCACTTATTTCGGAGTCACCTAGTGCAG” the figure was 3950 fluorescence intensity (a.u.); with “TGCCGCCGCCGCCACCTCCGCCGCTGTCCGCCGCCGGCGCCGGAGTCACCTAGTGCAG”, 4060 fluorescence intensity (a.u.).
With “GCGGATCGAACGGTCAGAACGACCCAACCCCACACTCAAGCGGAGTCACCTAGTGCAG” the figure was 3750 fluorescence intensity (a.u.).
For the sequence “CATGTGTGGTGAGCATATTTGTTTGTACTGTTGTATTTTACGGAGTCACCTAGTGCAG”, the binding signal is 3550 fluorescence intensity (a.u.).
On to “TGTTGGACCACGTGCGCGCGAGCCCGATTCCCCGCGGTAGCGGAGTCACCTAGTGCAG”, for which the binding signal was 5180 fluorescence intensity (a.u.).
With “TGTTCATAAAAGTAAATGTGCGTGCGTGATTGTATTGTATCGGAGTCACCTAGTGCAG”, the binding signal was 12500 fluorescence intensity (a.u.).
As to “TCCCATCTAGTATCCTACGTGGCGCTGATGTGGCATGCCACGGAGTCACCTAGTGCAG”, the binding signal was 20500 fluorescence intensity (a.u.).
With “GAAATTATAACATTGTAATTTACTATGAGTTACAAAGTAACGGAGTCACCTAGTGCAG”, the binding signal is 22800 fluorescence intensity (a.u.).
As to “TATATGAACCAAACTCTGATCGATGAGTCAGCAACTTAGGCGGAGTCACCTAGTGCAG”, the binding signal was 7200 fluorescence intensity (a.u.).
For the sequence “CAGCTCAAACCATGGCGCCGCCATGCCCACGGCGACGACCCGGAGTCACCTAGTGCAG”, the binding signal was 3190 fluorescence intensity (a.u.).
“CTCACAGCTTCGCGGTTTCCACGCACTTGAAAACTCACGTCGGAGTCACCTAGTGCAG”: the binding signal was 3270 fluorescence intensity (a.u.).
In the case of “TATTTCCCATACAGTCAGTATCCACTCTATGTTCCACCACCGGAGTCACCTAGTGCAG”, the binding signal was 4900 fluorescence intensity (a.u.).
Consider “TGTCCGTAGCCGACGCGCGCCGCGTCGGCTGACATGCGGGCGGAGTCACCTAGTGCAG”, for which the binding signal was 6270 fluorescence intensity (a.u.).
With “ATCTTGCGAAGACGTACGTGCAGAATGCATCATCCATGATCGGAGTCACCTAGTGCAG”, the binding signal was 3240 fluorescence intensity (a.u.).
In the case of “CCGTCCCGCCACGTGGCGCAAAAGCGTGTTCACGGGCCCCCGGAGTCACCTAGTGCAG”, the binding signal is 13300 fluorescence intensity (a.u.).
“GTACCAAATGTAATAATTAACATATTTTGTCAATCTTATACGGAGTCACCTAGTGCAG”: the binding signal was 3710 fluorescence intensity (a.u.).

The values are drawn from paper PMC7819943, “Rice protein-binding microarrays: a tool to detect cis-acting elements near promoter regions in rice”.
